In the supplement of paper PMC10849652:
The list shows a part of the results.

Protein sequences, listed by entry. Tags and fused reporters are not part of them. Lines headed by an entry give the natural chain unless they say otherwise; changes in a name come on top.
UniProt Q86UA1: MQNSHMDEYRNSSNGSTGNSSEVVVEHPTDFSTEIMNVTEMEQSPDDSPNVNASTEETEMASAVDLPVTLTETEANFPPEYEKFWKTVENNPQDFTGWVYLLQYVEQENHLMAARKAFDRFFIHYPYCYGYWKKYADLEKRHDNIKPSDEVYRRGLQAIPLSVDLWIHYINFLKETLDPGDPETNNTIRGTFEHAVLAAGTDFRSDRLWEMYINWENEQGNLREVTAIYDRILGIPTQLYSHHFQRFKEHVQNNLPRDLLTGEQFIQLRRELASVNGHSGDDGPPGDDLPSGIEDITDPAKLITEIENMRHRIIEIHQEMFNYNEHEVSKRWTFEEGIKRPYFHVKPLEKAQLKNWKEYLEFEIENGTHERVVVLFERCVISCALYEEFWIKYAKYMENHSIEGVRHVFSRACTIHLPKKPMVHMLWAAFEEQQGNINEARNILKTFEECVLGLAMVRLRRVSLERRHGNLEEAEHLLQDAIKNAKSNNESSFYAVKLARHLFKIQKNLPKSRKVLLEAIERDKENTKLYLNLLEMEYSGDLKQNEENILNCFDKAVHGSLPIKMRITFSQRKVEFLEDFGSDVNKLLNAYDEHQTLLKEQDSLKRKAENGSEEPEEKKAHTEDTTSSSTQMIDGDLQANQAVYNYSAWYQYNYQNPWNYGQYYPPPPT
UniProt Q14738, whole entry, looked up: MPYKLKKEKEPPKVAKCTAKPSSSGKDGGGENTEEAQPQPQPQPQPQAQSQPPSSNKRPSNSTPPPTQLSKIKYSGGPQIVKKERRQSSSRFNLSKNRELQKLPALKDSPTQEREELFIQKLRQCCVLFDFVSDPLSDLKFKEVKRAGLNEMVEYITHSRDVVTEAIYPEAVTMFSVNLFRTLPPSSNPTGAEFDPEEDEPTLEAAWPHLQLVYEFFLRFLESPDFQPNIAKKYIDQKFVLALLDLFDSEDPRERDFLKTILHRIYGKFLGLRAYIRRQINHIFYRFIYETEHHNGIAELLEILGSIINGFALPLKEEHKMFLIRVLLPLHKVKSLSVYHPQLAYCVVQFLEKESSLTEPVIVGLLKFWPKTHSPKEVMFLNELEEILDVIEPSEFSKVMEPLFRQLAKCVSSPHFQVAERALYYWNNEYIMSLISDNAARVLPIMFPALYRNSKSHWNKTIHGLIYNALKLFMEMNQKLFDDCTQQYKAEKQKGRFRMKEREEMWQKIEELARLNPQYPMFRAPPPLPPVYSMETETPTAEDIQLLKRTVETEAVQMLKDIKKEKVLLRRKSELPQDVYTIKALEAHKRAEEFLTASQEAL
UniProt Q6PFW1: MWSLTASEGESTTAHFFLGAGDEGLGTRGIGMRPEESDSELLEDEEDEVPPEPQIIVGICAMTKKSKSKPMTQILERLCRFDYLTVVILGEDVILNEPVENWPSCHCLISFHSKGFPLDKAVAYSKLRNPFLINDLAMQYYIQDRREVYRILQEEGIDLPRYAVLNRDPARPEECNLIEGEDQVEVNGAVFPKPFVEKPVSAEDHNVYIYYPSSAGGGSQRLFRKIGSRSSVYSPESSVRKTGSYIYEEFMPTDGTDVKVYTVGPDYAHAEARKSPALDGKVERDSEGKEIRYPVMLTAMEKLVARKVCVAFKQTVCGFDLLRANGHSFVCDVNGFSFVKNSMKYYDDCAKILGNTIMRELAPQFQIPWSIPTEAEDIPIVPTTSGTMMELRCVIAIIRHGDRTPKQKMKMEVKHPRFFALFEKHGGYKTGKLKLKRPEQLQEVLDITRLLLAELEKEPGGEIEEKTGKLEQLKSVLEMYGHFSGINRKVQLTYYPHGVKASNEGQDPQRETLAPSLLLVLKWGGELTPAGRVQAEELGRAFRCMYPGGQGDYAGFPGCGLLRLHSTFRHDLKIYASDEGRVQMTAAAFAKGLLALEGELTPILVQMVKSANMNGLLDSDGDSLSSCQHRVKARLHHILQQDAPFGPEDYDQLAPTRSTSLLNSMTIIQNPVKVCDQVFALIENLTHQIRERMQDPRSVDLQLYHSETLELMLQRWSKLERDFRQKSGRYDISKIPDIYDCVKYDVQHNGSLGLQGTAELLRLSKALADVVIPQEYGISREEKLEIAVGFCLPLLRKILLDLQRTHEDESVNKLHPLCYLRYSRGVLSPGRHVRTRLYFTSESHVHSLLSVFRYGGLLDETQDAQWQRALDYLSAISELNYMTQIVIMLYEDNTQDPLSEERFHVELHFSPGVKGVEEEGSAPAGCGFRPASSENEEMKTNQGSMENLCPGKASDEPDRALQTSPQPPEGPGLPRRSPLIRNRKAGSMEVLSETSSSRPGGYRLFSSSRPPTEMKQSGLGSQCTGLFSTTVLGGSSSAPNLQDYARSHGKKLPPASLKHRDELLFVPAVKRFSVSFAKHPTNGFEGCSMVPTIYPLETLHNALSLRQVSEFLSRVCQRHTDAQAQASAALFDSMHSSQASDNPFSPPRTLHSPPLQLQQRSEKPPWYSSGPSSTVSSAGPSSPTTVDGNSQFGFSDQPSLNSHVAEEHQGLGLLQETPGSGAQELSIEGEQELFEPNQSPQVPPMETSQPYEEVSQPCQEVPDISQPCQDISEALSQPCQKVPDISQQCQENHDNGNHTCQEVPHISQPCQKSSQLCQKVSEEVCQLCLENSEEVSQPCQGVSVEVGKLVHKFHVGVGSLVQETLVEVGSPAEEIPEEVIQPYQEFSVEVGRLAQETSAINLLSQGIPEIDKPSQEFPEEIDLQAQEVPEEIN
UniProt P32119: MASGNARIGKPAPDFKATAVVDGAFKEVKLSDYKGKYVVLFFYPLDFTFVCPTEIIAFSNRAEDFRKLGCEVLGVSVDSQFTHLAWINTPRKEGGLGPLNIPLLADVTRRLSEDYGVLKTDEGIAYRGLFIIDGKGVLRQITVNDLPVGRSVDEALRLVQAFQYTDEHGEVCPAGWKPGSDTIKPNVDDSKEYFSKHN
UniProt Q5H9R7: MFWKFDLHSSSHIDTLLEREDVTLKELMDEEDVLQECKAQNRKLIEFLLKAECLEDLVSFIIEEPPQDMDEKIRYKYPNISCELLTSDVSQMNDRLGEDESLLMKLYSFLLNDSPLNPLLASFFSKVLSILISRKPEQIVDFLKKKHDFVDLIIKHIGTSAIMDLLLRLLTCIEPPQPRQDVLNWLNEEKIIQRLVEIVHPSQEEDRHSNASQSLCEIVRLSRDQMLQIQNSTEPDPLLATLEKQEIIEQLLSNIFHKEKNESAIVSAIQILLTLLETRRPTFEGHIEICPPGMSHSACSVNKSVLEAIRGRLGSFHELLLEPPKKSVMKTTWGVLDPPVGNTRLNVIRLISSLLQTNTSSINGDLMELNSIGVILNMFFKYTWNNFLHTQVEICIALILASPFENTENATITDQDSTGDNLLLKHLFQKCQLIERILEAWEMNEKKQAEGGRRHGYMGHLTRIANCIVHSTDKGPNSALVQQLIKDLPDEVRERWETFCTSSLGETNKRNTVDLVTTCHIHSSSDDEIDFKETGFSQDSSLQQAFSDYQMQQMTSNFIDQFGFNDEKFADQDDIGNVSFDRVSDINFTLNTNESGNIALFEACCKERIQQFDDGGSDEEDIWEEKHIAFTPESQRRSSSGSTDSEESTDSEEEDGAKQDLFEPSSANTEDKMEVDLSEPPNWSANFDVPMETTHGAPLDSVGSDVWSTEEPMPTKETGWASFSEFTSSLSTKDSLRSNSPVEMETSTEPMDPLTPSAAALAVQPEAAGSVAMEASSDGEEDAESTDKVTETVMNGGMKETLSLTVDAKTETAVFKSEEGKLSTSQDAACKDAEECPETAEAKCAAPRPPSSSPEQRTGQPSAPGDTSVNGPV
UniProt P50336: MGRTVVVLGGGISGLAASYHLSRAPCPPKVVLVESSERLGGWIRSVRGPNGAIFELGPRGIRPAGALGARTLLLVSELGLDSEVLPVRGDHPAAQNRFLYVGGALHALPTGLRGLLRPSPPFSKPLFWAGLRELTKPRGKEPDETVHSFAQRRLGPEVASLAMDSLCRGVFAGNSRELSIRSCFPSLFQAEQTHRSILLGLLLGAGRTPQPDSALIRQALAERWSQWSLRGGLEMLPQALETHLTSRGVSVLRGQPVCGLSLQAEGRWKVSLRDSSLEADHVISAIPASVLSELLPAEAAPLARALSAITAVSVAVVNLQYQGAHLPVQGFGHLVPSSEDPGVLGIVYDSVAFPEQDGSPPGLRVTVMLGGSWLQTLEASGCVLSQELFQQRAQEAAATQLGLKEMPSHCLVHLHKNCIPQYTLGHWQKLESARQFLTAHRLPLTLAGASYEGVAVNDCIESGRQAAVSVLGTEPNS
UniProt Q96SB3: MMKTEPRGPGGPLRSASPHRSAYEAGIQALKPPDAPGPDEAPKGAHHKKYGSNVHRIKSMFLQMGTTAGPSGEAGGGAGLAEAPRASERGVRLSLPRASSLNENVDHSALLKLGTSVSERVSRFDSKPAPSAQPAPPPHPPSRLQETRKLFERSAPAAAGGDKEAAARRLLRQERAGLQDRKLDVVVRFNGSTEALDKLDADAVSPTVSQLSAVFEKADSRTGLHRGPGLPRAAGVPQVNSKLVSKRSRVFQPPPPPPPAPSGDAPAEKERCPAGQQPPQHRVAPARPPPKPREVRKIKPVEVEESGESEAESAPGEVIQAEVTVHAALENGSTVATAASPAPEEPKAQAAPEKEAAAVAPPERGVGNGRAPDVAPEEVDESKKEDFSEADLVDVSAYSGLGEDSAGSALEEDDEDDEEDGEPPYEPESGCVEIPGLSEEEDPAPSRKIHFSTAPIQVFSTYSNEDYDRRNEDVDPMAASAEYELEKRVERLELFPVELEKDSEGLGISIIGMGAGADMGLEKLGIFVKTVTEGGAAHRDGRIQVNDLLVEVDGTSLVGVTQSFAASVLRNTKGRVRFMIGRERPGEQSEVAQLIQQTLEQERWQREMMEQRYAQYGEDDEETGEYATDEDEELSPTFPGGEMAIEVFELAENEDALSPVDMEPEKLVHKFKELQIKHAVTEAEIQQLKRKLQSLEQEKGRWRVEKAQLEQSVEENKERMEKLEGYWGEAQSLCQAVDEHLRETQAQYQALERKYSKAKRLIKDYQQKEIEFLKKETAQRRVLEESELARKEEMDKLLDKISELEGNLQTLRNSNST
UniProt O15091: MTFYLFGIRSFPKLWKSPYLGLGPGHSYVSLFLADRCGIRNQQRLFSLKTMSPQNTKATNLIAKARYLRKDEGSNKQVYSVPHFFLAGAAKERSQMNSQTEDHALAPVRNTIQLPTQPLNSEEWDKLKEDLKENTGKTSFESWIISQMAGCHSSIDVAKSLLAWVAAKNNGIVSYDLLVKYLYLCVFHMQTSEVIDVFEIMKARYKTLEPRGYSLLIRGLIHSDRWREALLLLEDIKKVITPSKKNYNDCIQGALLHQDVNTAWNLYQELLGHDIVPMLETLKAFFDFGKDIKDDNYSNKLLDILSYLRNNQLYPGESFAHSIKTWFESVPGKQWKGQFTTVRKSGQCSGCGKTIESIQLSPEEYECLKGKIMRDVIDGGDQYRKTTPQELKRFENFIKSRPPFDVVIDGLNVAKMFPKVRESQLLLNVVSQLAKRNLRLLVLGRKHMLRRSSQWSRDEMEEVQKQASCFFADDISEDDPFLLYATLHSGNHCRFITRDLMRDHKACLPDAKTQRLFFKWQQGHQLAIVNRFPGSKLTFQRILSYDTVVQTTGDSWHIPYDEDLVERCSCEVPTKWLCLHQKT
UniProt Q16537, whole entry, looked up: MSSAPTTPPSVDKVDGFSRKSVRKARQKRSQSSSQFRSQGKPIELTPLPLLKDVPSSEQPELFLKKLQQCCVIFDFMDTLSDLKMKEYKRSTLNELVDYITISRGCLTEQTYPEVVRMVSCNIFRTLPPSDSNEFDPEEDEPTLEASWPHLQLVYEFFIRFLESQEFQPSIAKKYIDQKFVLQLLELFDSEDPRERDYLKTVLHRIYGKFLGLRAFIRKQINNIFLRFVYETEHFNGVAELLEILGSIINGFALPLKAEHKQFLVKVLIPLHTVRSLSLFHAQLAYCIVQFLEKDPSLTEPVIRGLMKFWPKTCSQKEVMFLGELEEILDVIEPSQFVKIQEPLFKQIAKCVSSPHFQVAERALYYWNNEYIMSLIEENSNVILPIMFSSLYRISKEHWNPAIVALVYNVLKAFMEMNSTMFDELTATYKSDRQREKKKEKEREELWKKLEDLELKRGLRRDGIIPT
UniProt P10644, whole entry, looked up: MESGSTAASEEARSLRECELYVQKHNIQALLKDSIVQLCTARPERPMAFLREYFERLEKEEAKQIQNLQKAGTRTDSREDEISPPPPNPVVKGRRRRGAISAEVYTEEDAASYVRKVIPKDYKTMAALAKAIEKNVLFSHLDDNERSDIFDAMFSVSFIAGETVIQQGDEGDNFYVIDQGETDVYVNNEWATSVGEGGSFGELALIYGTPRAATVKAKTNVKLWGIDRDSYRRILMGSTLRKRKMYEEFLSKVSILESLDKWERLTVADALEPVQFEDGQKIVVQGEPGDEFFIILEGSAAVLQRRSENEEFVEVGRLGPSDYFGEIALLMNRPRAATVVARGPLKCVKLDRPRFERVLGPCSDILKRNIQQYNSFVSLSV

Experiments:
Assay in all cases: log2 fold change, soluble protein after heating vs DMSO (PISA); higher = thermal stabilisation; K562 lysate, 10 uM; active = over 0.2 and 3.5 SD of the protein, either way, in both replicates (recomputed)
erlotinib = compound: C#Cc1cccc(Nc2ncnc3cc(OCCOC)c(OCCOC)cc23)c1 [erlotinib]
Method in brief: (§1)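 Quantification was by TMTpro 16plex LC-MS/MS with equalised channel sums, applied to the supernatant after 21,000xg for 90 min. Samples were crude K562 extract at 1 mg/mL protein in PBS pH 7.4 with 1 mM MgCl2, treated with 10 μM compound for 30 min, heated for 3 min across 48°C-58°C, pooled and brought to 0.5% NP-40 at 4°C. Values are log-two fold changes in thermal stability relative to solvent controls, from duplicates.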

[1] = compound: C/C(=N\NC(=O)C1=CC(=CC=C1)S(=O)(=O)N2CCOCC2)/C3=C(C=CC(=C3)Cl)O
Method in brief: as §1

[2] = compound: C1=CC(=CC=C1C2=NC3=C(N2)C=C(C=C3)C(=O)N)OC4=CC=C(C=C4)Cl
Method in brief: as §1

[3] = compound: C1=CC2=C(C=CC(=C2)/C=C\3/C(=O)NC(=NCC4=CC=CS4)S3)N=C1
Method in brief: as §1

[4] = compound: C1=CC2=NC=CN=C2C=C1/C=C/3\C(=O)NC(=O)S3
Method in brief: as §1

[5] = compound: C1=CC=C(C=C1)C2=NC(=C(N2)C3=CC=NC=C3)C4=CC(=C(C=C4)Cl)O
Method in brief: as §1

[6] = compound: C1=CC=C2C(=C1)C3=NNC4=CC=CC(=C43)C2=O
Method in brief: as §1

[7] = compound: C1CCN(C1)C(=O)NC2=CC=CC(=C2)NC3=NC=C(C(=N3)NCCC4=CN=CN4)Br
Method in brief: as §1

[8] = compound: C1CN(CCC1(CC2=CC=C(C=C2)Cl)N)C3=NC=NC4=C3C=CN4
Method in brief: as §1

IRAK-1-4 Inhibitor I = compound: C1COCCN1CCN2C3=CC=CC=C3N=C2NC(=O)C4=CC(=CC=C4)[N+](=O)[O-] [IRAK-1-4 Inhibitor I]
Method in brief: as §1

ibrutinib = compound: C=CC(=O)N1CCC[C@@H](n2nc(-c3ccc(Oc4ccccc4)cc3)c3c(N)ncnc32)C1 [ibrutinib]
Method in brief: as §1

[9] = compound: CC(=O)c1cnc2ccc(-c3cc(Cl)c(O)c(Cl)c3)nc2c1N[C@H]1CC[C@H](CN(C)C)CC1
Method in brief: as §1

ralimetinib = compound: CC(C)(C)Cn1c(N)nc2ccc(-c3[nH]c(C(C)(C)C)nc3-c3ccc(F)cc3)nc21 [ralimetinib]
Method in brief: as §1

[10] = compound: CC(C)(O)CC(=O)NCCn1ccc2ncnc(Nc3ccc(Oc4cccc(C(F)(F)F)c4)c(Cl)c3)c21
Method in brief: as §1

[11] = compound: CC(C)C1=C2N=C(C=C(N2N=C1)NCC3=CC=CC=C3)NCCCCCCN
Method in brief: as §1

[12] = compound: CC1=C(C(CC(=O)N1)C2=CC=C(C=C2)C(F)(F)F)C(=O)NC3=C(C=C4C(=C3)C=NN4)F
Method in brief: as §1

[13] = compound: CC1=C(C2=C(C=C1)C(=O)C3=CC=CC=C3N2CCCN)C
Method in brief: as §1

[14] = compound: CC1=C(C=C(C=C1)NC(=O)C2=CC(=CC=C2)C(C)(C)C#N)NC3=CC4=C(C=C3)N=CN(C4=O)C
Method in brief: as §1

[15] = compound: CC1=C(C=C(C=C1)NC(=O)C2=CC(=CC=C2)N(C)C)NC(=O)C3=CC=C(C=C3)O
Method in brief: as §1

[16] = compound: CC1=CC=C(C=C1)SC2=C3C=C(SC3=CN=C2)C(=O)N
Method in brief: as §1

Measured: log2 fold change

PRDX3 (UniProt P30048)
inactive: erlotinib -0.008 | [1] -0.054 | [2] 0.034 | [3] 0.012 | [4] -0.052 | [5] 0.014 | [6] 0.007 | [7] 0.014 | [8] 0.011 | IRAK-1-4 Inhibitor I 0.018 | ibrutinib -0.02 | [9] -0.004 | ralimetinib -0.013 | [10] -0.015 | [11] 0.013 | [12] -0.036 | [13] -0.016 | [14] 0.054 | [15] 0.02 | [16] -0.033

PRPF39 (UniProt Q86UA1)
inactive: erlotinib 0.011 | [1] 0.015 | [2] -0.082 | [3] -0.03 | [4] -0.001 | [5] -0.032 | [6] 0.007 | [7] -0.044 | [8] -0.03 | IRAK-1-4 Inhibitor I 0.027 | ibrutinib -0.001 | [9] 0.013 | ralimetinib 0.006 | [10] -0.004 | [11] -0.007 | [12] 0 | [13] -0.053 | [14] 0.009 | [15] 0.023 | [16] 0.034

PPP2R5D (UniProt Q14738)
inactive: erlotinib 0.033 | [1] 0.042 | [2] 0.004 | [3] 0 | [4] -0.018 | [5] -0.009 | [6] 0.007 | [7] 0.031 | [8] 0.013 | IRAK-1-4 Inhibitor I 0.006 | ibrutinib -0.04 | [9] 0.016 | ralimetinib 0.022 | [10] 0.003 | [11] 0.01 | [12] 0.009 | [13] 0.006 | [14] -0.044 | [15] 0.021 | [16] 0.018

PPIP5K1 (UniProt Q6PFW1)
inactive: erlotinib -0.05 | [1] 0.006 | [2] 0.004 | [3] -0.021 | [4] -0.04 | [5] -0.017 | [6] 0.006 | [7] -0.016 | [8] 0.038 | IRAK-1-4 Inhibitor I 0.008 | ibrutinib 0.014 | [9] -0.008 | ralimetinib 0.037 | [10] 0.011 | [11] 0.046 | [12] 0.024 | [13] -0.072 | [14] -0.03 | [15] 0.027 | [16] 0.011

PPP1R12A (UniProt O14974)
inactive: erlotinib -0.015 | [1] -0.093 | [2] 0.011 | [3] 0.002 | [4] -0.002 | [5] -0.006 | [6] -0.024 | [7] -0.001 | [8] -0.014 | IRAK-1-4 Inhibitor I 0.016 | ibrutinib -0.016 | [9] 0.013 | ralimetinib 0.032 | [10] -0.021 | [11] 0.006 | [12] 0.008 | [13] -0.01 | [14] 0.005 | [15] 0.015 | [16] -0.01

PRDX2 (UniProt P32119)
inactive: erlotinib -0.026 | [1] 0.019 | [2] -0.003 | [3] -0.05 | [4] 0.006 | [5] 0.014 | [6] 0.012 | [7] 0.03 | [8] -0.003 | IRAK-1-4 Inhibitor I -0.155 | ibrutinib 0.013 | [9] 0.018 | ralimetinib -0.073 | [10] 0.002 | [11] -0.007 | [12] -0.016 | [13] -0.026 | [14] 0.004 | [15] 0.007 | [16] -0.015

PPP6R3 isoform 5 (UniProt Q5H9R7)
inactive: erlotinib -0.013 | [1] -0.007 | [2] 0.006 | [3] 0.021 | [4] 0.001 | [5] 0.014 | [6] 0 | [7] -0.01 | [8] -0.015 | IRAK-1-4 Inhibitor I 0.016 | ibrutinib 0.014 | [9] -0.007 | ralimetinib -0.002 | [10] -0.006 | [11] -0.029 | [12] -0.015 | [13] -0.013 | [14] 0.03 | [15] 0.025 | [16] -0.015

PPOX (UniProt P50336)
active: [1] 0.532
inactive: erlotinib -0.044 | [2] 0 | [3] -0.015 | [4] -0.04 | [5] 0.025 | [6] 0.014 | [7] 0 | [8] -0.041 | IRAK-1-4 Inhibitor I -0.016 | ibrutinib 0.067 | [9] -0.008 | ralimetinib 0.001 | [10] 0.091 | [11] 0.301 | [12] -0.022 | [13] -0.138 | [14] 0.105 | [15] 0.006 | [16] 0.012

PPME1 isoform 4 (UniProt Q9Y570)
inactive: erlotinib -0.002 | [1] -0.006 | [2] 0.023 | [3] -0.005 | [4] -0.035 | [5] 0.017 | [6] 0.065 | [7] 0.013 | [8] 0.01 | IRAK-1-4 Inhibitor I -0.006 | ibrutinib 0.042 | [9] 0.009 | ralimetinib 0.008 | [10] 0.018 | [11] -0.001 | [12] -0.021 | [13] -0.004 | [14] -0.011 | [15] -0.023 | [16] 0.012

PPP1R9B (UniProt Q96SB3)
inactive: erlotinib -0.018 | [1] -0.004 | [2] 0.021 | [3] 0.002 | [4] 0.032 | [5] -0.015 | [6] 0.028 | [7] -0.03 | [8] -0.009 | IRAK-1-4 Inhibitor I -0.01 | ibrutinib 0.05 | [9] -0.02 | ralimetinib 0.025 | [10] -0.016 | [11] -0.015 | [12] -0.03 | [13] -0.01 | [14] -0.029 | [15] 0.015 | [16] -0.01

Two entries drawn at random from those above, as already listed:
PPP1R12A (UniProt O14974)
inactive: erlotinib -0.015 | [1] -0.093 | [2] 0.011 | [3] 0.002 | [4] -0.002 | [5] -0.006 | [6] -0.024 | [7] -0.001 | [8] -0.014 | IRAK-1-4 Inhibitor I 0.016 | ibrutinib -0.016 | [9] 0.013 | ralimetinib 0.032 | [10] -0.021 | [11] 0.006 | [12] 0.008 | [13] -0.01 | [14] 0.005 | [15] 0.015 | [16] -0.01

PPP1R9B (UniProt Q96SB3)
inactive: erlotinib -0.018 | [1] -0.004 | [2] 0.021 | [3] 0.002 | [4] 0.032 | [5] -0.015 | [6] 0.028 | [7] -0.03 | [8] -0.009 | IRAK-1-4 Inhibitor I -0.01 | ibrutinib 0.05 | [9] -0.02 | ralimetinib 0.025 | [10] -0.016 | [11] -0.015 | [12] -0.03 | [13] -0.01 | [14] -0.029 | [15] 0.015 | [16] -0.01

Remaining list, next part:

PRKAB2 (UniProt O43741)
inactive: erlotinib -0.032 | [1] -0.165 | [2] 0.096 | [3] -0.041 | [4] 0.031 | [5] 0.039 | [6] 0.153 | [7] 0.196 | [8] 0.042 | IRAK-1-4 Inhibitor I 0.24 | ibrutinib -0.041 | [9] -0.018 | ralimetinib 0.093 | [10] -0.129 | [11] -0.025 | [12] 0.086 | [13] -0.066 | [14] -0.082 | [15] 0.035 | [16] -0.008

PRMT7 (UniProt Q9NVM4)
inactive: erlotinib -0.042 | [1] 0.004 | [2] 0.024 | [3] 0.038 | [4] 0.008 | [5] -0.023 | [6] -0.083 | [7] -0.033 | [8] -0.031 | IRAK-1-4 Inhibitor I -0.008 | ibrutinib 0.043 | [9] -0.016 | ralimetinib 0.042 | [10] -0.01 | [11] 0.017 | [12] 0 | [13] -0.008 | [14] 0.013 | [15] 0.031 | [16] 0.008

PRORP (UniProt O15091)
inactive: erlotinib 0 | [1] -0.067 | [2] 0.132 | [3] 0.049 | [4] 0.349 | [5] -0.122 | [6] -0.08 | [7] -0.102 | [8] 0.047 | IRAK-1-4 Inhibitor I -0.055 | ibrutinib 0.013 | [9] 0.007 | ralimetinib -0.075 | [10] 0.012 | [11] 0.053 | [12] 0.107 | [13] -0.087 | [14] 0.052 | [15] -0.133 | [16] -0.017

PPP2R5E (UniProt Q16537)
inactive: erlotinib -0.021 | [1] 0.036 | [2] 0.024 | [3] -0.021 | [4] 0 | [5] 0.005 | [6] -0.024 | [7] 0.009 | [8] -0.012 | IRAK-1-4 Inhibitor I -0.027 | ibrutinib 0.025 | [9] 0.002 | ralimetinib -0.026 | [10] -0.035 | [11] 0.022 | [12] 0.038 | [13] 0.006 | [14] -0.013 | [15] 0.034 | [16] -0.005

PRKAR1A (UniProt P10644)
inactive: erlotinib 0.019 | [1] 0.038 | [2] -0.027 | [3] -0.012 | [4] -0.024 | [5] 0.003 | [6] -0.043 | [7] -0.074 | [8] -0.077 | IRAK-1-4 Inhibitor I 0.002 | ibrutinib -0.017 | [9] -0.011 | ralimetinib 0 | [10] -0.013 | [11] 0.015 | [12] -0.045 | [13] -0.02 | [14] 0.034 | [15] 0.006 | [16] 0.041
